Laboratory results as given in patent US3988476A, “Pharmaceutical compositions and methods of treating allergic conditions utilizing 2-nitroindane-1,3-dione derivatives as the active agent” (Beecham Group Limited, priority 1972, dated 1976).
“And” between values parts separate entries of the source, which are not always exact repeats. Identical values can stand only once. At least one read-out could not be matched to a standard name with certainty.

System: PCA response
Assay: Rat Passive Cutaneous Anaphylaxis (PCA) test, ovalbumin challenge
Assay type: in vivo, Wistar rats
Conditions: 100 mg/kg; 0 min between dosing and challenge; solution of Na salt
Protocol: All of the 2-nitro indane-1,3-dione prepared in the preceding Examples were submitted for biological testing. The test system was the Rat Passive Cutaneous Anaphylaxis (PCA) test described below in (ii).
Male Wister rats of 250- 300 g, were injected intraperitoneally with 0.5 ml of Bordatella pertussis vaccine (containing 4× 10^10 dead organism per ml) and subcutaneously with 0.5 ml of an emulsion of 100 mg. of ovalbumin in 2 ml of saline and 3 ml of incomplete Freunds' adjuvant. Rats were bled by cardiac puncture on day 18, the blood was pooled and separated and serum stored at -20° and thawed only once before use.
0.1 ml of each of six twofold serial dilutions of the serum in 0.9% saline were injected intradermally into separate sites on the shaved dorsal surface of 250-350 g. Wistar rats. 72 hours later the animals were challenged by i.v. injection of 0.3 ml of 1% ovalbumin mixed with 0.1 ml of a 5% solution of pontamine sky blue dye both in isotonic saline buffered with pH. 7.2 Sorenson buffer (P.B.S.). The rats were killed after 20 minutes and the diameter of the blue wheals at the antibody injection sites were measured. The starting dilution of the serum was adjusted so that there was no response, after challenge, at the site of injection of the highest dilution and a maximum response at the lowest dilution. […]

Compound: Cc1cc(C)c2c(c1)C(=O)C([N+](=O)[O-])C2=O (stereo not shown) [4,6-dimethyl-2-nitroindane-1,3-dione, 4,6-Dimethyl-2-nitro-indane-1,3-dione]
- % INHIBITION OF PCA RESPONSE: 69% and 35%
